Reference: PubChem BioAssay AID1508588 (Peter MacCallum Cancer Centre, 2020)
Screen: 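Genome-wide search for knock-downs that heighten vemurafenib action in melanoma cells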 (primary screen). System: human WM266.4 melanoma cells (BRAF V600 mutant). Reagents: siRNA pool against human genes, 40 nM. Duration: 96 h from transfection to read-out. Conditions: vemurafenib 300 nM (about IC25), added 48 h after transfection, for 48 h; comparison arm got DMSO vehicle only. Measurement: 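Cell gain (DAPI nuclei at end minus before drug, mean of two replicates) and medium lactate by absorbance per cell, both as ratio to non-targeting siRNA, also grouped into fold-change classes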. Scale: cell gain with vemurafenib: higher = more cell gain than with non-targeting siRNA; lactate per cell with vemurafenib: higher = more lactate made per cell. Active means: 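Enhancement is called by pairing each knock-down's vehicle-arm and drug-arm fold-change classes for viability or glycolysis; which class combinations qualify is not given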. Meaning of the calls: active = enhances vemurafenib effect; inactive = no enhancement seen.
Shown is a random part of about 18,000 deposited reagents. Of all reagents, 790 (4.4%) got an active call. 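Calls rest on a combination of fold-change classes in drug and vehicle arms, not all shown here.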 A number with no mark means an inactive call.

Target gene,cell gain with vemurafenib,lactate per cell with vemurafenib
TMEM236 (transmembrane protein 236),0.93,0.94
SATB2 (SATB homeobox 2),0.41,1.34
MDH1B (malate dehydrogenase 1B),0.06,2.96
KLF16 (KLF transcription factor 16),-0.03,1.53
DGKK (diacylglycerol kinase kappa),0.71,1.27
SIRT4 (sirtuin 4),1.01,1.45
SLC5A3,0.5,1.44
FAM8A1 (family with sequence similarity 8 member A1),0.55,1.03
DLGAP1 (DLG associated protein 1),0.43,0.82
"ANPEP (alanyl aminopeptidase, membrane)",0.57,0.78
LY6G6F (lymphocyte antigen 6 family member G6F),0.45,0.53
CPD (carboxypeptidase D),0.37,1.21
TCHHL1 (trichohyalin like 1),0.25,1.14
SCD (stearoyl-CoA desaturase),0.34,0.75
CA13 (carbonic anhydrase 13),0.69,0.96
VDAC2 (voltage dependent anion channel 2),0.44,1.62
GPR85 (G protein-coupled receptor 85),0.29,1.02
GPR151 (G protein-coupled receptor 151),0.29,1.47
ANAPC4 (anaphase promoting complex subunit 4),0.85,0.4
ACTR1A (actin related protein 1A),0.68,1.28
DBNL (drebrin like),0.67,1.54
CCDC150 (coiled-coil domain containing 150),0.27,1.87
POFUT2 (protein O-fucosyltransferase 2),0.79,0.47
SLC8B1,0.05,0.86
SLC6A4,0.53,1.27
"PYGM (glycogen phosphorylase, muscle associated)",0.6,1.02
OR4K13 (olfactory receptor family 4 subfamily K member 13),0.77,1.2
ATF6B (activating transcription factor 6 beta),0.09,1.89
BFAR (bifunctional apoptosis regulator),0.06,2.87
RACK1 (receptor for activated C kinase 1),0.43,0.28
INHA (inhibin subunit alpha),0.6,1.16
DUSP22 (dual specificity phosphatase 22),0.79,1.12
DNAAF10 (dynein axonemal assembly factor 10),1.16,0.56
REG1B (regenerating family member 1 beta),0.41,1.19
VPS52 (VPS52 subunit of GARP complex),0.36,1.7
DACT3 (dishevelled binding antagonist of beta catenin 3),0.56,0.92
EIF3C (eukaryotic translation initiation factor 3 subunit C),0.06,0.97
OR6Y1 (olfactory receptor family 6 subfamily Y member 1),0.14,0.48
EML4 (EMAP like 4),0.43,0.97
ASPHD1 (aspartate beta-hydroxylase domain containing 1),0.53,0.94
GNB5 (G protein subunit beta 5),0.65,0.94
UCN (urocortin),0.53,0.55
GIGYF2 (GRB10 interacting GYF protein 2),-0.01,2.3
BMP5 (bone morphogenetic protein 5),0.68,0.4
TBX4 (T-box transcription factor 4),0.28,1.86
SLC10A6,0.57,0.75
VAPB (VAMP associated protein B and C),0.64,0.76
"TNNI2 (troponin I2, fast skeletal type)",0.07,1.07
OR5T2 (olfactory receptor family 5 subfamily T member 2),0.78,0.52
TIMM13 (translocase of inner mitochondrial membrane 13),0.51,0.64
FAM24A (family with sequence similarity 24 member A),0.89,1.08
LTB4R (leukotriene B4 receptor),-0.01,1.4
C7orf33 (chromosome 7 open reading frame 33),0.23,0.93
DMTN (dematin actin binding protein),0.59,0.53
SENP6 (SUMO specific peptidase 6),0.18,2.41
DPY19L4 (dpy-19 like 4),0.61,1.62
MTMR3 (myotubularin related protein 3),0.35,1.37
"TNNC2 (troponin C2, fast skeletal type)",1.18,0.99
"LARS2 (leucyl-tRNA synthetase 2, mitochondrial)",0.65,0.62
AKR1B1 (aldo-keto reductase family 1 member B),0.27,1.14
METTL3,0.81,1.15
DCLRE1B (DNA cross-link repair 1B),0.31,1.05
UBTF (upstream binding transcription factor),0.8,1.2
SUSD1 (sushi domain containing 1),0.54,0.63
KRT35 (keratin 35),0.8,0.9
ZSWIM4 (zinc finger SWIM-type containing 4),0,0
ZNF600 (zinc finger protein 600),1.08,0.74
CDV3 (CDV3 homolog),0.79,0.42
SLC9B1,0.95,0.62
NFKBID (NFKB inhibitor delta),0.56,1.06
ABCB4 (ATP binding cassette subfamily B member 4),0.16,0.92
STYXL1 (serine/threonine/tyrosine interacting like 1),0.5,0.98
ASB5 (ankyrin repeat and SOCS box containing 5),0.75,0.89
GALNT8 (polypeptide N-acetylgalactosaminyltransferase 8),0.78,0.77
"NF2 (NF2, moesin-ezrin-radixin like (MERLIN) tumor suppressor)",0.44,1.34
DCP1B (decapping mRNA 1B),0.55,1.19
CST8 (cystatin 8),1.21,0.88
PRDM11 (PR/SET domain 11),0.68,1.28
AADACL4 (arylacetamide deacetylase like 4),0.54,1.36
CTNNA1 (catenin alpha 1),0.27,0.82
DAB2IP (DAB2 interacting protein),0.06,1.89
ACTR6 (actin related protein 6),0.62,0.94
ZC3H7B (zinc finger CCCH-type containing 7B),0.39,0.94
OPRPN (opiorphin prepropeptide),0.58,1.56

An excerpt of the results above, for reference:
Target gene,cell gain with vemurafenib,lactate per cell with vemurafenib
SLC9B1,0.95,0.62
NFKBID (NFKB inhibitor delta),0.56,1.06
ABCB4 (ATP binding cassette subfamily B member 4),0.16,0.92
STYXL1 (serine/threonine/tyrosine interacting like 1),0.5,0.98
ASB5 (ankyrin repeat and SOCS box containing 5),0.75,0.89
GALNT8 (polypeptide N-acetylgalactosaminyltransferase 8),0.78,0.77
"NF2 (NF2, moesin-ezrin-radixin like (MERLIN) tumor suppressor)",0.44,1.34
DCP1B (decapping mRNA 1B),0.55,1.19
CST8 (cystatin 8),1.21,0.88
PRDM11 (PR/SET domain 11),0.68,1.28
AADACL4 (arylacetamide deacetylase like 4),0.54,1.36
CTNNA1 (catenin alpha 1),0.27,0.82
